The results in this text go back to paper PMC3320604, “A Genome-Wide Screen for Genetic Variants That Modify the Recruitment of REST to Its Target Genes”.

Construct, isoform or probe ends are uncertain for at least one entry. Tags and fusion partners may be left off the protein sequences shown.

This data set concerns the target T1, HisMBP-REST/DBD (UniProt Q13127).
T1 sequence (looked up, limits assumed): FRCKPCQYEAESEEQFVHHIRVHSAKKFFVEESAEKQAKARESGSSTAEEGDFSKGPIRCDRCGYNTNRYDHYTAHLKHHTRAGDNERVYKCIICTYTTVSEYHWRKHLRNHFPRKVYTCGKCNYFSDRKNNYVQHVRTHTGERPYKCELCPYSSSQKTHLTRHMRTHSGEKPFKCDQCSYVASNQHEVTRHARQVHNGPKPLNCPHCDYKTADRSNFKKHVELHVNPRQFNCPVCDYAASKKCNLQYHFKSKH
Kind of data set: competition EMSA. Particulars: competition against Cy5 Scn2a2 RE1 probe; 10 mM Tris-HCl pH 8.0, 100 mM KCl, 2 mM 2-mercaptoethanol, ZnCl2 (printed '50 M', unit prefix lost), 10% glycerol, 0.1% NP-40, 0.1 mg/ml BSA; 0.5 nM probe; low values mean tight binding; recombinant protein; protein details: His-MBP; label: unlabelled competitor; letters put together from the description. A general note: Mobility shift assays separate free from complexed probe on a gel.
Regarding “AAGAGCCCGTTTCAGCACCATGGACAAAGCACCCCCCGAC (double strand) [RE1 control N4_MAJ]”, the binding signal (fraction of probe bound) stood at 0.495.
Consider “AAGAGCCCGTTTCAGCACCATGGACAAAGCACCCTCCGAC (double strand) [RE1 control N4_MIN]”, for which the binding signal (fraction of probe bound) is 0.463.
Then “AAGGCAGGAGTTCAGCACCACGGACAGCGACCTGCGGGTG (double strand) [RE1 control N2_MAJ]”, with 0.194; and “AAGGCAGGGGTTCAGCACCACGGACAGCGACCTGCGGGTG (double strand) [RE1 control N2_MIN]”, with 0.148.
As for “GAGCGCAGCCGGCAGCACCATGGACAGCGCCGGGTTGGGC (double strand) [RE1 control N1_MIN]”, the binding signal (fraction of probe bound) stood at 0.345.
With “GAGCGCCGCCGGCAGCACCATGGACAGCGCCGGGTTGGGC (double strand) [RE1 control N1_MAJ]”, the binding signal (fraction of probe bound) was 0.377.
As to “GGAGCGTTGCTTCAGCACCACGGAGAGATCATCACTGCAG (double strand) [RE1 control N3_MIN]”, the binding signal (fraction of probe bound) stood at 0.512.
As for “GGAGCGTTGCTTCAGCACCACGGAGAGATCATGACTGCAG (double strand) [RE1 control N3_MAJ]”, the binding signal (fraction of probe bound) came to 0.531.
